3 molecules from paper PMC6769256 can be followed below.

Results are given in words; binding and its absence hold for the method and conditions named. Binding seen in cells or lysates may run through a third protein. Binding calls can cover weak binding; strength is not graded here. Sequences can lack the tags named with a protein.

This experiment concerns the target GFP-tagged Dm HELZ (CG9425) (Drosophila melanogaster) (UniProt Q9VUH9). In words: co-IP; GFP immunoprecipitation from Dm S2 cells co-transfected with GFP-Dm HELZ (bait) and an HA-tagged Dm protein; lysates treated with RNase A before IP; Western blot.

B1: HA-tagged Dm PAN3 (protein, UniProt Q95RR8 1-790)
chain: MCSTYGLLSFEFSDTAAMDPIFFSPTNGIPSESKLATYMNRQNVATPSGYGLNNGFSLLNLDSPLNKKSQVTPQSPEFIPTRLGSTPNFYAPYHNAPMQLSNGLNGVNGLTAAAAAAAAAAAAAAAAVPSSTSSASSASVTISKTANGGASMLALQKTASIASVTIAQQQPQHPQKQQQHPPSVGGGAVSAASAPIAISGAPPNPAAAPFVSSMSAQTPLKGRGAMMRQESPTAAMISGAGPGEKSPPHGMTPHGASPIPSALPTSVHQENVGGTIYFYPTANAQNSQPVVNSMVVDGTHPALHGVSAVAPMSAGVPAAMMYTGHVYPGPSSNVVTMQPKTLLESAFFMPDEMRAEVLARNEISNLIMDAAEAAQHALPLEVENYHALYPLEPPAQPLHAKLTFPATTYRATHNTTGYKYCLRRIHGFRLQSTKCMTLVEMWKKLQHTNVVQLREVFTTKAFGDNSLVLVYDYHPGSQTLLAKYFTPAPETNGYTDPFQGEARPFSHKSNMQRTSNGPLLPEATIWSIIMQLTAGLKAIHHAGLACKVLDPTKIIVTGKRVRFSSCCISDITQFDPNASNPLALVNMHQQDDLTALGRLVLALACRCLQSVQRDNVQSSIDMVTRNYSTDLRNFIVYLFTTNNRRSVTDLMPMIGARFYTQLDALQSKIDMQEDELAKEMENGRLYRILVKLNSINERPDFNLDCTWSETGDRYMLKLFRDYLFHSVTEDGRPWLDHAHIVQCLNKLDAGSIERVQLMSRDEQSVLIVSYAELKNCLENAFSELMSSAAN
As to B1, the binding entry is listed as “binds”.

B2: HA-tagged Dm NOT2 (protein, UniProt Q94547 1-585)
chain: MANLNFQQPPRSIANAALAGRTTGGFGGSSLAGHVTPTSGMFQTDFANSYPGTANYGQAPQQQQQQQQQPQLSPNRNAQLSVGGPAISSGNRNANLFGQRQFVERRAMQGLGSGPMSNMGNFMQTGRGGYGTGGGGGGPLNNFHVFGGGGGSDTSTPALLDPTEFPSLTNARGQNDQTLPQSNPLQPPGSKPYGNFFTSFGMVKQPTSEQSEFTMSNEDFPALPGTQNSDGTTNAVGSVAGTGGSGGASTENHLDGTEKPMNSIVVSGSASGSSGSNVGVVGGNGLGAVGSGIGGLAVGGGGGAGSSGGGGVGGNAASGVVGGSHVGLVGSNSGIGGVNSVPNSNAMMGVGGGLGSGSGSSGSGAGGEHLNDNSSNDKLVKSGVQTSPDGKVTNIPATMVNNQFGMVGLLTFIRAAETDPNLVTLSLGTDLTGLGLNLNSQESLHTTFAGPFVAQPCRAQDVEFNVPPEYLINFAIRDKLTAPVLKKLQEDLLFFLFYTNIGDMMQLMAAAELHSREWRYHVEEKIWITRIPGIDQYEKNGTKERGTFYYFDAQSWKRLSKVFQIDPEKLDKCPNISAFMNGQSV
In the case of B2, the binding result is recorded as “binds”.

B3: HA-tagged Dm Me31B (fly orthologue of mammalian DDX6) (protein, UniProt P23128 1-459)
chain: MMTEKLNSGHTNLTSKGIINDLQIAGNTSDDMGWKSKLKLPPKDNRFKTTDVTDTRGNEFEEFCLKRELLMGIFEKGWERPSPIQEAAIPIALSGKDVLARAKNGTGKTGAYCIPVLEQIDPTKDYIQALVMVPTRELALQTSQICIELAKHLDIRVMVTTGGTILKDDILRIYQKVQLIIATPGRILDLMDKKVADMSHCRILVLDEADKLLSLDFQGMLDHVILKLPKDPQILLFSATFPLTVKNFMEKHLREPYEINLMEELTLKGVTQYYAFVQERQKVHCLNTLFSKLQINQSIIFCNSTQRVELLAKKITELGYCCYYIHAKMAQAHRNRVFHDFRQGLCRNLVCSDLFTRGIDVQAVNVVINFDFPRMAETYLHRIGRSGRFGHLGIAINLITYEDRFDLHRIEKELGTEIKPIPKVIDPALYVANVGASVGDTCNNSDLNNSANEEGNVSK
Regarding B3, the binding entry was “no binding”.
